PubChem BioAssay AID743121 | NCATS, 2013
The deposit covers about 26,000 reagents; shown is a random part of them. Over the whole deposit, 167 (0.63%) were called active. 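Calls are per gene from RSA p-values that are not deposited; an individual active-marked siRNA can sensitise only weakly.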 Reagents against one gene are numbered here. Not all columns of the deposit are shown.

Test: 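Partners whose loss is lethal together with topoisomerase I blockade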 (primary screen)
Cells: MDA-MB-231 cells, a human breast cancer line
Knock-down reagent: single siRNA against human genes, 20 nM siRNA (0.8 pmol per well)
Timing: 120 h (drug added 48 h after transfection, read 72 h later)
Conditions: camptothecin 20 nM (about EC30) for 72 h; vehicle 0.1% DMSO in parallel plates
Detection: 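CellTiter-Glo ATP signal, scaled to control siRNA as percent viability; sensitisation given as log2 of untreated divided by camptothecin-treated viability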
Reading the numbers: log2 vehicle/camptothecin viability: higher = stronger sensitisation to camptothecin
Hit rule: 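Active genes have an RSA gene-level p-value below 0.001, computed from the ratios of their separate siRNAs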

What is on record for GP1BA #1?
log2 vehicle/camptothecin viability: -0.0765; outcome: inactive

For GP1BA #2, how do the results read?
log2 vehicle/camptothecin viability: -0.255; outcome: inactive

What did the screen give for GP1BA #3?
log2 vehicle/camptothecin viability: -0.044; outcome: inactive

For GP1BA #4, what does the deposit list?
log2 vehicle/camptothecin viability: -0.138; outcome: inactive

What is on record for KCNK2 #1?
log2 vehicle/camptothecin viability: 0.629; outcome: active

How did the screen score KCNK2 #2?
log2 vehicle/camptothecin viability: 0.249; outcome: active

What is on record for KCNK2 #3?
log2 vehicle/camptothecin viability: 0.467; outcome: active

For KCNK2 #4, what does the deposit list?
log2 vehicle/camptothecin viability: 0.341; outcome: active

For ENDOV #1, what was measured?
log2 vehicle/camptothecin viability: -0.167; outcome: inactive

For ENDOV #2, what was measured?
log2 vehicle/camptothecin viability: 0.00173; outcome: inactive

With ENDOV #3, what does the deposit list?
log2 vehicle/camptothecin viability: 1; outcome: inactive

What is on record for ENDOV #4?
log2 vehicle/camptothecin viability: -0.166; outcome: inactive

For IL17A #1, how do the results read?
log2 vehicle/camptothecin viability: -0.0175; outcome: inactive

With IL17A #2, how do the results read?
log2 vehicle/camptothecin viability: 0.242; outcome: inactive

With IL17A #3, how do the results read?
log2 vehicle/camptothecin viability: -0.0407; outcome: inactive

How did the screen score USP3 #1?
log2 vehicle/camptothecin viability: 0.00552; outcome: inactive

What is on record for USP3 #2?
log2 vehicle/camptothecin viability: -0.539; outcome: inactive

What is on record for USP3 #3?
log2 vehicle/camptothecin viability: -0.162; outcome: inactive

Which result is listed for CHRNA2 #1?
log2 vehicle/camptothecin viability: -0.0766; outcome: inactive

For CHRNA2 #2, what was measured?
log2 vehicle/camptothecin viability: 0.579; outcome: inactive

How did the screen score CHRNA2 #3?
log2 vehicle/camptothecin viability: -0.602; outcome: inactive

With CHRNA2 #4, what was measured?
log2 vehicle/camptothecin viability: 0.474; outcome: inactive

What did the screen give for ADH1B #1?
log2 vehicle/camptothecin viability: -0.207; outcome: inactive

For ADH1B #2, how do the results read?
log2 vehicle/camptothecin viability: 0.0239; outcome: inactive

For ADH1B #3, how do the results read?
log2 vehicle/camptothecin viability: -0.278; outcome: inactive

How did the screen score ADH1B #4?
log2 vehicle/camptothecin viability: -0.22; outcome: inactive

With IGF2 #1, what was measured?
log2 vehicle/camptothecin viability: -0.245; outcome: inactive

For IGF2 #2, how do the results read?
log2 vehicle/camptothecin viability: 0.486; outcome: inactive

With IGF2 #3, what does the deposit list?
log2 vehicle/camptothecin viability: -0.276; outcome: inactive

Which result is listed for BRCC3 #1?
log2 vehicle/camptothecin viability: 1.18; outcome: inactive

For BRCC3 #2, how do the results read?
log2 vehicle/camptothecin viability: 0.178; outcome: inactive

How did the screen score BRCC3 #3?
log2 vehicle/camptothecin viability: -0.26; outcome: inactive

What is on record for BRCC3 #4?
log2 vehicle/camptothecin viability: 0.0782; outcome: inactive

With SORD #1, how do the results read?
log2 vehicle/camptothecin viability: -0.293; outcome: inactive

For SORD #2, how do the results read?
log2 vehicle/camptothecin viability: -0.141; outcome: inactive

For SORD #3, what does the deposit list?
log2 vehicle/camptothecin viability: -0.321; outcome: inactive

With ACAT1 #1, what does the deposit list?
log2 vehicle/camptothecin viability: 0.106; outcome: inactive

How did the screen score ACAT1 #2?
log2 vehicle/camptothecin viability: 0.398; outcome: inactive

How did the screen score ACAT1 #3?
log2 vehicle/camptothecin viability: 0.501; outcome: inactive

With ACAT1 #4, what does the deposit list?
log2 vehicle/camptothecin viability: -0.107; outcome: inactive

What is on record for L1CAM #1?
log2 vehicle/camptothecin viability: 0.101; outcome: inactive

What did the screen give for L1CAM #2?
log2 vehicle/camptothecin viability: -0.341; outcome: inactive

What did the screen give for L1CAM #3?
log2 vehicle/camptothecin viability: -0.067; outcome: inactive

How did the screen score L1CAM #4?
log2 vehicle/camptothecin viability: -0.465; outcome: inactive

Which result is listed for DEK #1?
log2 vehicle/camptothecin viability: -0.336; outcome: inactive

With DEK #2, what was measured?
log2 vehicle/camptothecin viability: -0.1; outcome: inactive

For DEK #3, what was measured?
log2 vehicle/camptothecin viability: 0.0372; outcome: inactive

With DEK #4, what does the deposit list?
log2 vehicle/camptothecin viability: 0.186; outcome: inactive

Copied from the list.
For “outcome”, GP1BA #2 is entered as inactive
Entry for ACAT1 #2 in “outcome”: inactive
Under “log2 vehicle/camptothecin viability”, BRCC3 #1 is entered as 1.18
IGF2 #2, log2 vehicle/camptothecin viability = 0.486
Entry of USP3 #1 under “log2 vehicle/camptothecin viability”: 0.00552
